Assay results reported in doi:10.1101/2023.05.11.540316.

Molecular target: STXBP1-emGFP (UniProt P61765)
Assay: affinity purification with mass spectrometry

B1: DDHD2, endogenous in PC12 cells (enzyme, UniProt D3ZJ91 1-699)
chain: MSSGESYQEQLSQSDPSPSPNSSSSFELLDMDVGSSYEPVSPHWFYCKVIDSKELWIPFNSEDSQQLEEAHGSGKDCNERVVPTDGGRYDVHLGERMRYAVYWDELPSEVRRCTWFYKGDKDNKYVPYSESFSQVLEDTYMLAVTLDEWKKKLESPNREIIVLHNPKLMVHYQPITGSDEWGSTSTEQGRPRSVKRGVESIPVDIHCGEPLQIDHLVFVVHGIGPACDLRFRSIVQCVNDFRSVSLNLLQTHFKKAQENQQIGRVEFLPVNWHSPLHSTGVDIDLQRITLPSINRLRHFTNDTILDVFFYNSPTYCQTIVDTVASEMNRIYTLFLQRNPDFKGGVSIAGHSLGSLILFDILTNQKDSIGDIDSEKGSLSTAEDLGDVSTLEEELKKLQLSEFVTVFEKEKVDREALALCTDRDLQEMGIPLGPRKKILNHFSATKSSVGINRPTMSASEVNIPKEKGDYLDVGIGQVSVKYPRLNYKPEIFFAFGSPIGMFLTVRGLRRIDPNYKFPTCKGFFNIYHPFDPVAYRIEPMVVPGVEFEPMLIPHHKGRKRMHLELREGLTRMSMDLKNNLLGSLRMAWKSFTRAPYPALQASEMAEDTEAESEPSSEKPSDANTEEPPVEVKEEAPINVGMLNGGQRIDYVLQEKPIESFNEYLFALQSHLCYWESEDTVLLVLKEIYQTQGIFLDQPLQ
binding: binds

Results are given in words; binding and its absence hold for the method and conditions named. Binding seen in cells or lysates may run through a third protein. A yes stands for co-enrichment or nearness to the bait. Other partners may have been found.
